Reference: US20210196823A1, “Methods of Treating Metabolic Disease” (Pfizer Inc., priority 2018, published 2021)
Results are given in words; binding and its absence hold for the method and conditions named. Some results given as binding are weak or reduced against the parent protein; the word gives no strength.

By UniProt entry, the sequences of proteins in these tests, tags left out. Residues count along the entry.
UniProt P22004, residues 382-513: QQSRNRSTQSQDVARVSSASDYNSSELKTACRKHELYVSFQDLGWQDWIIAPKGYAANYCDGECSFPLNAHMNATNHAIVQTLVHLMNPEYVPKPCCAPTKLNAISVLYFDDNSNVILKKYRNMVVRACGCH

Columns and labels:
[1] = target: T1, BMP2 (UniProt P12643); experiment: SPR (Biacore): BMP at 50 nM over ERFE A4-biotin amine coupled to a CM4 chip, MES-Tris pH 6.0, 25 °C
T1 sequence (looked up): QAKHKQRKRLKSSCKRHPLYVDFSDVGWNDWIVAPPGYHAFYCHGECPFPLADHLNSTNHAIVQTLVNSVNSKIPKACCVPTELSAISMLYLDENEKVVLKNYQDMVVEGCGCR

[2] = target: BMP6 (UniProt P22004); experiment: as above
[3] = target: T2, BMP4 (UniProt P12644); experiment: as above
T2 sequence (looked up): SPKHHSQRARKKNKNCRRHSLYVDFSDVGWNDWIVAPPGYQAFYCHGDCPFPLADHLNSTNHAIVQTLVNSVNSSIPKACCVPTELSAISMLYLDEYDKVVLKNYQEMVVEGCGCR

[4] = target: T1, BMP2; experiment: SPR/Biacore (FIG. 2 legend)
[5] = target: BMP6 (UniProt P22004); experiment: SPR/Biacore (FIG. 2 legend)
[6] = target: T2, BMP4; experiment: SPR/Biacore (FIG. 2 legend)

Measured: binding

B1: ERFE A4-biotin (ligand)
chain: AAGLGSPEPGAPSRSAAAAEPPPGNELPRGPGESRAGPAARPPEPTAERAHSVDPRDAWMLFVRQSDKGVNGKKRSRGKAKKLKFGLPGPPGPPGPQGPPGPIIPPEALLKEFQLLLKGAVRQRERAEPEPCTCGPAGPVAASLAPVSATAGEDDDDVVGDVLALLAAPLAPGPRAPRVEAAFLCRLRRDALVERRALHELGVYYLPDAEGAFRRGPGLNLTSGQYRAPVAGFYALAATLHVALGEPPRRGPPRPRDHLRLLICIQSRCQRNASLEAIMGLESSSELFTISVNGVLYLQMGQWTSVFLDNASGCSLTVRSGSHFSAVLLGV
modifications: biotin (site not stated)
binds: [1] | [2] | [3] | [4] | [5] | [6]
